Experimental data: US20250388936A1, “METHODS AND CELLS FOR THE PRODUCTION OF FLUORINATED COMPOUNDS” (priority 2022, published 2025)
The name of at least one read-out is uncertain.

B1: FIA^MA37: fluorinase of Streptomyces sp. MA37, SEQ ID NO: 30, accession CDH39444.1 (protein, listed as Streptomyces sp.)
chain: MAANGSQRPIIAFMSDLGTTDDSVAQCKGLMHSICPGVTVVDVCHSMTPWDVEEGARYIVDLPRFFPEGTVFATTTYPATGTTTRSVAVRIRQAAKGGARGQWAGSGDGFERADGSYIYIAPNNGLLTTVLEEHGYIEAYEVTSTKVIPANPEPTFYSREMVAIPSAHLAAGFPLAEVGRRLDDSEIVRFHRPAVEISGEALSGVVTAIDHPFGNIWTNIHRTDLEKAGIGQGKHLKIILDDVLPFEAPLTPTFADAGAIGNIAFYLNSRGYLSLARNAASLAYPYNLKAGLKVRVEAR
modifications: Streptomyces sp. MA37
B2: FIA^PtaU1: fluorinase of Methanosaeta sp. PtaU1.Bin055, SEQ ID NO: 1, accession OPY51785.1 (protein, listed as Methanosaeta sp.)
chain: MLQNTKNEYKPRDGGGHRPIIGFMSDLGTEDDSVGICKGVMLGLCPDAVIVDISHSMTPWDIDQGSRLIVDLPKFFPNWTTFATTSYRETGTSARSVAIKLPSGHVYVAPNNGLLTRVIEDHGYVEAYEVTTVGAIPAEPEPTWFSRDMVAYPAAAIAAGFPLENVGRPLNDSEIVRADLPRYTQAEDGIIQGIVTTIDRPFGNIWTNIPRRIIENELRIAYGTNIRVVLDNLLVLEVPFMRTFGDVGLKKPMCYINSRGYFSLAYYGGNLADPYNIRRGMPVKIESITR
modifications: Methanosaeta sp. PtaU1.Bin055

Experiment: Steady-state fluorination kinetics of purified fluorinases (5′-FDA by HPLC)
Type: biochemical
Details: 50 mM HEPES, pH 7.8, 75 mM KF, varying SAM, 37° C., triplicate
Experimental: 96-well activity assays were carried out in 150 μL reactions containing 50 mM HEPES pH 7.8, 75 mM KF, ˜1 μM fluorinase (considering the theoretical molecular mass), and 10, 25, 50, 100, 250, or 500 μM SAM (New England Biolabs). 96-well PCR plates were sealed and incubated for 1 h at 37° C., 5 min at 95° C., and cooled to 10° C. in a thermocycler (Bio-Rad). The plates were then centrifuged for 30 min at 2,500×g and 120 μL of supernatants were transferred to round-bottom 96-well plates (Thermo Scientific), which were sealed with a silicone lid for HPLC analysis. Transhalogenation reactions were carried out in the same way, but using increasing concentrations of 5′-CIDA (5′-chloro-5′-deoxyadenosine) in the presence of 1 mM L-Met.
Steady-state kinetics were performed in the same conditions with slight variations. […] Samples were centrifuged at maximum speed for 10 min at 4° C. before being transferred to 96-well plates for 5′-FDA quantitation by HPLC analysis. Product formation rates for the different substrate concentrations were calculated by least squares linear regression with at least three time-points and fitted to the Michaelis-Menten equation using the Origin software (OriginLab Corporation). […]

Molecule | kcat/KM^SAM
B1 | 606 ± 80.3 M⁻¹ s⁻¹
B2 | 959 ± 148 M⁻¹ s⁻¹
